Source: PMC7819943, “Rice protein-binding microarrays: a tool to detect cis-acting elements near promoter regions in rice”
This is one part of the list.

By UniProt entry, the sequences of proteins in these tests, tags left out.
UniProt Q0JBA9, entry or part of it: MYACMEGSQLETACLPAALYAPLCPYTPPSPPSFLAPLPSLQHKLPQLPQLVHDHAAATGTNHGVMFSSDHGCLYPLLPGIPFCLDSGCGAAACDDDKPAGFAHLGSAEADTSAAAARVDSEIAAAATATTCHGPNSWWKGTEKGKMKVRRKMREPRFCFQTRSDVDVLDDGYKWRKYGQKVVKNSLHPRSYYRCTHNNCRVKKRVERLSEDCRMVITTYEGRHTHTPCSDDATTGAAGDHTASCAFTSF

molecular target: OsWRKY34 (Oryza sativa, UniProt Q0JBA9 1-250); experiment: protein-binding microarray (RPBM); PBS, 2% BSA, 51.3 ng/ul salmon testes DNA, 50 uM zinc acetate, 200 nM TF, 25 C, 1 h; high values mean tight binding; details: protein: recombinant; tags: N-terminal polyhistidine and DsRed monomer fusion (pET32a); label: CyDye5-dUTP incorporated in the synthesized complementary strand; 3' TTTTT single-stranded linker to array surface; dsDNA, one strand shown
How it was run: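 Per-feature fluorescence intensity (arbitrary units), read on an Axon 4000B scanner, is the binding signal. Transcription factors carrying an N-terminal polyhistidine tag and DsRed fusion were expressed in E. coli BL21-CodonPlus and purified on Ni–NTA. A custom Agilent array, made double-stranded by primer extension with Cy5-dUTP and blocked with 2% BSA, was incubated with 200 nM protein in PBS, 2% BSA, salmon testes DNA and 50 µM zinc acetate at 25 °C for 1 h and then washed.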

Sequence | binding signal
TCAACTAATCAATCACATGGTAATGACTTTTTCTTTTGTTCGGAGTCACCTAGTGCAG | 9290 fluorescence intensity (a.u.)
GATGTGATGTAATTATTGTGTATTAAGGTTTTCGATACAACGGAGTCACCTAGTGCAG | 8570 fluorescence intensity (a.u.)
GCGTGGTATTGCCTGCTGCGTGTGCTTCACTTCCCCGAATCGGAGTCACCTAGTGCAG | 8070 fluorescence intensity (a.u.)
GGCCTTCTTTTCTGATTCCGAATTTTGTATATTCGTTTGCCGGAGTCACCTAGTGCAG | 8920 fluorescence intensity (a.u.)
ATCGCCATCACCGCCCATCGCACCAAATCCTGTGTATCACCGGAGTCACCTAGTGCAG | 11400 fluorescence intensity (a.u.)
TTCTCCGTGTTAATATCACTTACGTCAAGGACCTATTTGTCGGAGTCACCTAGTGCAG | 8750 fluorescence intensity (a.u.)
ACGGCTTTCCTACCCACCCACTCCACTCCACTCCACTCCCCGGAGTCACCTAGTGCAG | 9010 fluorescence intensity (a.u.)
TCGCTAGTAGCTGTTGCTGCCTCTCCACCGCGTCCCTCTCCGGAGTCACCTAGTGCAG | 11000 fluorescence intensity (a.u.)
TCGTGTCACTGTGGCTCACTATTCACCACCACTATTTTTTCGGAGTCACCTAGTGCAG | 8720 fluorescence intensity (a.u.)
AGCACCAGTCCCTACTTTGTTTAGCAGCTTCTGGACATCACGGAGTCACCTAGTGCAG | 11800 fluorescence intensity (a.u.)
GTGGCCTTGTTCTATATGTTATTTTGCTCCTAGCGATGTACGGAGTCACCTAGTGCAG | 8430 fluorescence intensity (a.u.)
CGCTCTCGCGCCGCCACCACCTCACCCCGCGCCCCGCCGCCGGAGTCACCTAGTGCAG | 8150 fluorescence intensity (a.u.)
TGTTCGATTCCCTCCCTTGTATGCTTCTTTTTTTTTTCCCCGGAGTCACCTAGTGCAG | 8710 fluorescence intensity (a.u.)
CTCCTCCGGCCTCTTCCCGTAGCGCGCCGGCCGCCGCCCCCGGAGTCACCTAGTGCAG | 8030 fluorescence intensity (a.u.)
CACCACGTTCGTTCCGGACGTCCACGCCTTACCAACCTTCCGGAGTCACCTAGTGCAG | 8090 fluorescence intensity (a.u.)
GCAAATCTCACCACTCGCCACCACCTCCACTTCGCCGCCGCGGAGTCACCTAGTGCAG | 9370 fluorescence intensity (a.u.)
ATGGCTCGGTGGTGCACTATTTTTTTTTTAACTTAATTTGCGGAGTCACCTAGTGCAG | 12100 fluorescence intensity (a.u.)
GCTGCTTTCCTTTCTTCTCTTCCAGTCAATCAAACGCGTCCGGAGTCACCTAGTGCAG | 8800 fluorescence intensity (a.u.)
TGTTGGTGAATGGTAATTTTTTGGGTTGATATGTTGCTGACGGAGTCACCTAGTGCAG | 9580 fluorescence intensity (a.u.)
GCATCCCGGTCCGCCGTCGCATCCGCCATCGTGCTGAGCACGGAGTCACCTAGTGCAG | 8080 fluorescence intensity (a.u.)
GGTGATTGTGGTTATGCCAGTTTAAATATTCTCCACTGCTCGGAGTCACCTAGTGCAG | 8090 fluorescence intensity (a.u.)

Sequence | binding signal
CTTAACTCTGCCAAACATGCCCATAGTTAGCTTCATTATTCGGAGTCACCTAGTGCAG | 8070 fluorescence intensity (a.u.)
ACCGACTTACACAATCTCTCCCACTGCCATGCGGGCCCACCGGAGTCACCTAGTGCAG | 9000 fluorescence intensity (a.u.)
TTTTCTGTCCAAGTTGGCCGCTTTGGCAACTACTCCTTTCCGGAGTCACCTAGTGCAG | 8160 fluorescence intensity (a.u.)
CCAGCCTCGCCACCTCGCCCATGCTTATCGCTCTCTTCCCCGGAGTCACCTAGTGCAG | 9200 fluorescence intensity (a.u.)
TCCTCCACTCCACCACCCACCCGCCCGGCCGAACCAGCCACGGAGTCACCTAGTGCAG | 8070 fluorescence intensity (a.u.)
CACTGATCGTCCTTGACTTATCTATTTGTATTAAACTTTTCGGAGTCACCTAGTGCAG | 8540 fluorescence intensity (a.u.)
GAACGTGTCATCCCACCTATCCTACATATTTAAAGGCCACCGGAGTCACCTAGTGCAG | 9100 fluorescence intensity (a.u.)
TGTCTTTCTATTATCCCTTATATATACTCTTGTAAGCCGTCGGAGTCACCTAGTGCAG | 8840 fluorescence intensity (a.u.)
TCCATTGTTTTAGCTATATATGCTCTTGCTGCAAGTTACCCGGAGTCACCTAGTGCAG | 8540 fluorescence intensity (a.u.)
ATATTTTTTGTTTGCTAATTTCAGATTATTGATTCAGTATCGGAGTCACCTAGTGCAG | 8110 fluorescence intensity (a.u.)
ACGTCGCTGTAGCTTCTCTCCATCCATCCATCGAAATCTCCGGAGTCACCTAGTGCAG | 8820 fluorescence intensity (a.u.)
AATTGTTTTATGCCAGAGCCATAATTTTATCCTTTCTTTTCGGAGTCACCTAGTGCAG | 9000 fluorescence intensity (a.u.)
GTGTTCATTGATATTGCTTACTTCACTGTTTGTGACGCTACGGAGTCACCTAGTGCAG | 11600 fluorescence intensity (a.u.)
TGCACTATCACTTCATTTGTAGTTTGCACAGTTTGTGTTTCGGAGTCACCTAGTGCAG | 9100 fluorescence intensity (a.u.)
GTCCACTGTGCAGCTCCCGTGCAGGCGTTCCGCTTTGATGCGGAGTCACCTAGTGCAG | 9380 fluorescence intensity (a.u.)
TCCTACAGTACGCATTCCCACCGCACCGCCATTCGATCTGCGGAGTCACCTAGTGCAG | 8550 fluorescence intensity (a.u.)
GAACTGGTCAGGGAAAATATCCTCCACTTTTGGTTCGCTCCGGAGTCACCTAGTGCAG | 8190 fluorescence intensity (a.u.)
TTTGGTGGCATGGGTGGGGTCTCATCACCGTGGAGTTATTCGGAGTCACCTAGTGCAG | 10100 fluorescence intensity (a.u.)
CCATCCTCGTAGCCAGCGTTGACCGGGCCCGTGGCGGTCACGGAGTCACCTAGTGCAG | 14600 fluorescence intensity (a.u.)
TGTAACTGCACCAATTACTCCTGTTTTACTCCTTATTAATCGGAGTCACCTAGTGCAG | 9130 fluorescence intensity (a.u.)
CATTGGGAGGCGGGCTATGTACAAACTGGAGATCTCACATCGGAGTCACCTAGTGCAG | 9410 fluorescence intensity (a.u.)

Fetched one by one from the list above, 2 records:
Sequence | binding signal
TCAACTAATCAATCACATGGTAATGACTTTTTCTTTTGTTCGGAGTCACCTAGTGCAG | 9290 fluorescence intensity (a.u.)
ATGGCTCGGTGGTGCACTATTTTTTTTTTAACTTAATTTGCGGAGTCACCTAGTGCAG | 12100 fluorescence intensity (a.u.)
